Experimental data reported in patent US20150307616A1 (APEXIGEN, published 2015).
No constants are given. Whether binding was seen depends on the method and setting. A result given as binding can be weak or reduced; the word gives no strength.

Experiments:
monkey CD40 (monkey) [1] = assay: summary of Example 2
monkey CD40 (monkey) [2] = assay: direct ELISA on coated CD40 (1 µg/ml)
monkey CD40 (monkey) [3] = assay: direct ELISA, legend of FIGS. 11A and 11B
monkey CD40 (monkey) [4] = assay: direct ELISA by the text (1 ug/ml CD40 coated, goat anti-human IgG-HRP); the axis of the sheet is labelled MFI; one antibody concentration

Measured: binding

B1: APX005 humanized anti-CD40 antibody (antibody, IgG1, V domains shown)
VH: QVQLVESGGGVVQPGRSLRLSCAASGFSFSSTYVCWVRQAPGKGLEWIACIYTGDGTNYSASWAKGRFTISKDSSKNTVYLQMNSLRAEDTAVYFCARPDITYGFAINFWGPGTLVTVSS
VL: DIQMTQSPSSLSASVGDRVTIKCQASQSISSRLAWYQQKPGKPPKLLIYRASTLASGVPSRFSGSGSGTDFTLTISSLQPEDVATYYCQCTGYGISWPIGGGTKVEIK
notes: also called humanized R-8
binds: monkey CD40 (monkey) [1] | monkey CD40 (monkey) [2] | monkey CD40 (monkey) [3] | monkey CD40 (monkey) [4]
